Source: PMC3189947

T1: HNF4G, hepatocyte nuclear factor 4, gamma (His-tagged, TF array II) (UniProt Q14541)
T1 sequence: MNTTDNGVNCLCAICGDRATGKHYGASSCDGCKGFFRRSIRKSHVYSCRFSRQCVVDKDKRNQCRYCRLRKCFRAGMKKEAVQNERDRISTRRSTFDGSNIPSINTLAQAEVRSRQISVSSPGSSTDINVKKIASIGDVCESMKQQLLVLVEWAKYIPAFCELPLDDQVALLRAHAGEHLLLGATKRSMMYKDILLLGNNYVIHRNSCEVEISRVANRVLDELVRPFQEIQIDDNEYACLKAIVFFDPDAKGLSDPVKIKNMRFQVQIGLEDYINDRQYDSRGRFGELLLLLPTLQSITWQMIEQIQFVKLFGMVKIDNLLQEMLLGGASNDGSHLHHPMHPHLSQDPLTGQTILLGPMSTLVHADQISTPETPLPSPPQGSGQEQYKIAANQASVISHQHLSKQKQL

T2: NR112, nuclear receptor subfam. 1 (His-tagged, TF array II) (UniProt O75469)
T2 sequence: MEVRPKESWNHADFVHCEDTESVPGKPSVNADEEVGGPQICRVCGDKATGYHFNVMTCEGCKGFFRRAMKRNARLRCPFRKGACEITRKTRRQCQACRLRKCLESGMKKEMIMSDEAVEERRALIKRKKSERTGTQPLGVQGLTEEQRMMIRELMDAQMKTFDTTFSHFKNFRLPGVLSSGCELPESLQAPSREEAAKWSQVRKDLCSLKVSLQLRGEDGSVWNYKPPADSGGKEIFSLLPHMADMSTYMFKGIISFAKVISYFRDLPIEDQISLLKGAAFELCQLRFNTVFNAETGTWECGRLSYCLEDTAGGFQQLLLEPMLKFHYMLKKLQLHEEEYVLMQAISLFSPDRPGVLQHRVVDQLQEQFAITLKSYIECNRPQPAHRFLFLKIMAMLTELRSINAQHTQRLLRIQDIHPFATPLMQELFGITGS

T3: NFIL3, nuclear factor, interleukin 3 regulated (His-tagged, TF array II) (UniProt Q16649)
T3 sequence: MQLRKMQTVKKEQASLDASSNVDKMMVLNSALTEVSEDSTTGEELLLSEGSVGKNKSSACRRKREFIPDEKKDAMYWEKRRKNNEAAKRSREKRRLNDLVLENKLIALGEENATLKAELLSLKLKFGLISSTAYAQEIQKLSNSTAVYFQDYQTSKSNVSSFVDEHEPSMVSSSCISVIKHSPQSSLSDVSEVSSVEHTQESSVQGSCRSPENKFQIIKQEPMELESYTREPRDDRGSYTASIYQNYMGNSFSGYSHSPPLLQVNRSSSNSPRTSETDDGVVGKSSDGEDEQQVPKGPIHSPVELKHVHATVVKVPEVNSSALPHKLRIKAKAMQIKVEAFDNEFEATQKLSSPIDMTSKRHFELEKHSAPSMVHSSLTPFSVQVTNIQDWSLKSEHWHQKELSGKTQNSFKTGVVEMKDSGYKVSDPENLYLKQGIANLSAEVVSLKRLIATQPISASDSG

T4: Jun B, a proto-oncogene (His-tagged, TF array II) (UniProt P17275)
T4 sequence: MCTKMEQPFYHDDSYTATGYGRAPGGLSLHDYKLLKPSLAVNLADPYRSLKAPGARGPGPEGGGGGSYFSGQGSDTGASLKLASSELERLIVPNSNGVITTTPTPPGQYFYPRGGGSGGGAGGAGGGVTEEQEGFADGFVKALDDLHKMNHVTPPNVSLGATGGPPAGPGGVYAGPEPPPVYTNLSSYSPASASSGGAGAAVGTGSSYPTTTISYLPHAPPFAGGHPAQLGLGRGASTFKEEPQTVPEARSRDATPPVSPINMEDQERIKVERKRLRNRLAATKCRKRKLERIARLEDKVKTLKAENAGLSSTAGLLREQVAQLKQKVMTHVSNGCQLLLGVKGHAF

T5: LHX2, LIM homeobox 2 (His-tagged, TF array II) (UniProt P50458)
T5 sequence: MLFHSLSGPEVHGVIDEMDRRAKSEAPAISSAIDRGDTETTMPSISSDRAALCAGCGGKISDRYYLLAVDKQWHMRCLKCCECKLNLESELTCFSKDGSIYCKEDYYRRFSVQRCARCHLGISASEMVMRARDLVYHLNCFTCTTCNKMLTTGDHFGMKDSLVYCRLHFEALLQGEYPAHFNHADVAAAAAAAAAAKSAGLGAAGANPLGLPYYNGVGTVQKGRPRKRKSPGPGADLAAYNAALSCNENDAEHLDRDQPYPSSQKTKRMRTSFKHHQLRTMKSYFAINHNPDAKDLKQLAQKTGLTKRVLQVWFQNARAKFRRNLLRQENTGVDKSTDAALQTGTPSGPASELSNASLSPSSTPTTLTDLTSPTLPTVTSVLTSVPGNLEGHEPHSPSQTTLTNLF

T6: HEY, hairy/enhancer-of-split related with YRPW motif 1 (His-tagged, TF array II) (UniProt Q9Y5J3)
T6 sequence: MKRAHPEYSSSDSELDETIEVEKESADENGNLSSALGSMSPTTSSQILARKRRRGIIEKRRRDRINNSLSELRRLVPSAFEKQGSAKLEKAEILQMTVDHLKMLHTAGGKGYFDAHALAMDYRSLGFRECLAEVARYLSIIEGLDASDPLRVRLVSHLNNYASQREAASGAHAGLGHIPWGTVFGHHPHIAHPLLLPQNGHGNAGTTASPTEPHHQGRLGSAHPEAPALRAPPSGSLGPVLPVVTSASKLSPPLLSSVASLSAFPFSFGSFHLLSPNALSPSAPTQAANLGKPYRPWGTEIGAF


Assays:
[1] = molecular target: T1, HNF4G, hepatocyte nuclear factor 4, gamma (His-tagged, TF array II); experiment: peptide or protein array; TransSignal Transcription Factor Protein Array II (Panomics/Affymetrix), 46 His-tagged transcription factors spotted in duplicate, probed with purified GST-Ankrd2 (15 ug/ml), detected with anti-GST and HRP secondary antibody, chemiluminescence; both purified
[2] = molecular target: T2, NR112, nuclear receptor subfam. 1 (His-tagged, TF array II); experiment: as above
[3] = molecular target: T3, NFIL3, nuclear factor, interleukin 3 regulated (His-tagged, TF array II); experiment: as above
[4] = molecular target: T4, Jun B, a proto-oncogene (His-tagged, TF array II); experiment: as above
[5] = molecular target: T5, LHX2, LIM homeobox 2 (His-tagged, TF array II); experiment: as above
[6] = molecular target: T6, HEY, hairy/enhancer-of-split related with YRPW motif 1 (His-tagged, TF array II); experiment: as above
[7] = molecular target: GST-Ankrd2 (A, aa 5-333); experiment: pull-down; GST fusion proteins on glutathione-Sepharose beads incubated 2-12 h at 4 C with cell lysate in 50 mM HEPES pH 7.0, 250 mM NaCl, 0.1% NP-40, protease inhibitors; washed, SDS-PAGE, immunoblot; only the target purified
[8] = molecular target: GST-Ankrd2 NA (aa 5-284); experiment: as above
[9] = molecular target: GST-Ankrd2 CA (aa 121-333); experiment: as above

| binding [7] | binding [8] | binding [9] | Molecule | binding [1] | binding [2] | binding [3] | binding [4] | binding [5] | binding [6] |
| --- | --- | --- | --- | --- | --- | --- | --- | --- | --- |
|  |  |  | GST-Ankrd2 (A, aa 5-333) | binds weakly | binds | binds | binds | binds | binds |
| binds | binds | binds | telethonin/Tcap (protein, UniProt O15273 1-167) MATSELSCEVSEENCERREAFWAEWKDLTLSTRPEEGCSLHEEDTQRHETYHQQGQCQVLVQRSPWLMMRMGILGRGLQEYQLPYQRVLPLPIFTPAKMGATKEEREDTPIQLQELLALETALGGQCVDRQEVAEITKQLPPVVPVSKPGALRRSLSRSMSQEAQRG |  |  |  |  |  |  |

Results are given in words; binding and its absence hold for the method and conditions named. Binding calls can cover weak binding; strength is not graded here. For part of these data: Sequences can lack the tags named with a protein. For part of these data: Binding seen in cells or lysates may run through a third protein.
